# In the odorant receptor screen of Mainland et al. (2015):
# “And” between values parts separate entries of the source, which are not always exact repeats. Equal entries are not always repeated. The list shows a part of the results. Each value is one well over the wells without odorant, computed here; the data are noisy.
# Tests used:
# Assay in all cases: odorant receptor activation (CRE luciferase / Renilla) (fold of no-odor wells); higher = more activation
# Settings in all cases: 100 µM
# [1] = tested on: OR2J2 Y74H/T111A/V146A/T218A clone 1402
# OR2J2 clone 1403 = tested on: OR2J2 clone 1403
# OR2J2 clone 1404 = tested on: OR2J2 clone 1404
# [2] = tested on: OR2J3 I228V/M261I clone 1616
# OR2K2 clone 1340 = tested on: OR2K2 clone 1340
# OR2K2 clone 1450 = tested on: OR2K2 clone 1450
# OR2L13 clone 1481 = tested on: OR2L13 clone 1481
# OR2L2 clone 1465 = tested on: OR2L2 clone 1465
# OR2L3 clone 1526 = tested on: OR2L3 clone 1526
# OR2L5 clone 1697 = tested on: OR2L5 clone 1697
SMILES,odorant receptor activation [1],odorant receptor activation (OR2J2 clone 1403),odorant receptor activation (OR2J2 clone 1404),odorant receptor activation [2],odorant receptor activation (OR2K2 clone 1340),odorant receptor activation (OR2K2 clone 1450),odorant receptor activation (OR2L13 clone 1481),odorant receptor activation (OR2L2 clone 1465),odorant receptor activation (OR2L3 clone 1526),odorant receptor activation (OR2L5 clone 1697)
CS [methanethiol],0.907,0.852,0.892,0.675,0.83,0.85,0.676,0.995,1.09,0.601
CCCCOC(C)=O [butyl acetate],0.287,0.31,0.334,0.854,0.816,0.206,0.84,1.05,1.13,0.518
CCOc1cc(C=O)ccc1O [ethyl vanillin],0.991 and 1.3,1.33 and 1.3,2.01 and 2.64,1.8,3.29 and 1.12,1.32 and 2.95 and 1.26,1.17 and 1.72 and 1.26,1.11 and 1.93 and 1.27,1.26 and 1.9 and 1.21,0.871
CCC(C)=O [2-butanone],0.855,0.659,1.21,1.31,0.514,0.861,0.95,1.11,1.19,0.831
